These are yes or no findings as the source states them, for the method shown. Binding seen in cells or lysates may run through a third protein. Some entries that bind do so weakly or less than the wild type. Tags and fused reporters may be left off the sequences shown.
Experiments:
[1] = biological target: T1, O-linked N-acetylglucosamine (O-GlcNAc) transferase (OGT), endogenous (human (endogenous in HeLa)) (UniProt O15294); experiment: co-IP
T1 sequence: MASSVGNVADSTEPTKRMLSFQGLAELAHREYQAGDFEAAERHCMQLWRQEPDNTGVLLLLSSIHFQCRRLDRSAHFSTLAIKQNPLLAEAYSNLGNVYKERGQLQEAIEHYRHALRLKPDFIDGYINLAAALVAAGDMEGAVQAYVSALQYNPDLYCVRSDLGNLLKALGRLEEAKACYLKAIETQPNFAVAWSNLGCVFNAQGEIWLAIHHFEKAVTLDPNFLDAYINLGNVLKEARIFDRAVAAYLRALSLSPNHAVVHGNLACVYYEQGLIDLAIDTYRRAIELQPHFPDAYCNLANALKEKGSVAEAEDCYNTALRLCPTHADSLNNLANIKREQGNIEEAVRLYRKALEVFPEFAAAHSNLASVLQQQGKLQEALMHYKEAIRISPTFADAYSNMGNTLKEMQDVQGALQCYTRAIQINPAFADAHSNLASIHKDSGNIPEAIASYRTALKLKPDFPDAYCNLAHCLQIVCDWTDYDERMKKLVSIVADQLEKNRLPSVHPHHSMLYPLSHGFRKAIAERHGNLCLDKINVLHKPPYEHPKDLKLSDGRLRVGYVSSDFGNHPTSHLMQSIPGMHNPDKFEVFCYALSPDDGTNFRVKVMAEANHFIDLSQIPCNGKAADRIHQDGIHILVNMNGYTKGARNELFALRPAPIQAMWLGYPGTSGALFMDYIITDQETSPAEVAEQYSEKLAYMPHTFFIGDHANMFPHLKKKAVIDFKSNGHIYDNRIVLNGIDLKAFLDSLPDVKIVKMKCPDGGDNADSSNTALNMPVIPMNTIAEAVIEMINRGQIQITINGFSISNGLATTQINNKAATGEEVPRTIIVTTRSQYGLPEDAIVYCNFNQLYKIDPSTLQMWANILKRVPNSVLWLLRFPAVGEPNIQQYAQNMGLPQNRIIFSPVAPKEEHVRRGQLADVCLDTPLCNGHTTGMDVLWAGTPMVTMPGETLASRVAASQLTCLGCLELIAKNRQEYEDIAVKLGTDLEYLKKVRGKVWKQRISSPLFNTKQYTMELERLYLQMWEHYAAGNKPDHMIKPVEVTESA

[2] = biological target: T2, Recombinant GST-OGT (UniProt O15294); experiment: pull-down
T2 sequence: T1 sequence

[3] = biological target: T3, Myc-OGT (UniProt O15294); experiment: co-IP
T3 sequence: T1 sequence

binding [1]	binding [2]	binding [3]	Substance
binds	–	–	Polo-like kinase 1 (PLK1), endogenous (from UniProt P53350 1-603)
–	binds	binds	Flag-PLK1 (wild type) (from UniProt P53350 1-603)

Source: article doi:10.1101/2022.08.21.504716
